Assay results from patent publication US10751390B2, “Lipidated peptides as neuroprotective agents” (USTAV ORGANICKE CHEMIE A BIOCHEMIE AV CR, V.V.I., priority 2014, dated 2020).
At least one compound was matched to its structure with a doubt left.

Columns and labels:
Format in all cases: in vivo
[1] = system: insulin signaling cascade (PDK-1, Akt, GSK-3β); assay: Western blot of insulin signaling cascade in hippocampi of 6-month-old MSG mice after 14-day treatment; conditions: 14 days SC twice a day, liraglutide 0.2 mg/kg, vs saline
Protocol: (§1) Groups of MSG mice (n=10 animals per group) were for 14 days SC administered with liraglutide at a dose 0.2 mg/kg, or palmitoylated analog of PrRP31 at a dose 5 mg/kg, or palmitoylated analog with PrRP31 with dichlorophenylalanin in position 31 at a dose 5 mg/kg dissolved in saline, twice a day, at 8 a.m. and 6:00 p.m. Control mice (n=10 animals per group), NMRI and MSG, were injected in the same manner with saline (the volume was always 0.2 ml/mouse).
(§2) Overnight (15 hours) fasted mice with ad libitum access to water were weighed, and their plasma glucose concentration was measured using Glucocard glucometer. After decapitation, the brains were dissected on ice, and cut between hemispheres. For immunohistochemical staining the half of the brain was fixed for 24 hours in 4% paraformaldehyde and dehydrated in 70% ethanol, afterward. For the western blot (WB) analysis, the hippocampus was dissected from the second half of the brain, and lysed in cold lysis buffer (62.5 mmol·l^−1 Tris-HCl, pH 6.8 with 1% sodium deoxycholate, 1% Triton X-100 Complete, 50 mmol·l^−1 NaF, 1 mmol·l^−1 Na3VO4), homogenized, sonicated 10 minutes and stored at −20° C. The blood plasma was prepared, and stored at −20° C.
(§3) In homogenized hippocampi the protein level was measured using BCA kit (Pierce, Thermo Fisher Scientific, Rockfor, Ill., USA), then the samples were diluted in sample buffer (62.5 mmol/l Tris-HCl pH 6.8, 10% glycerol, 2% SDS, 0.01% bromfenol blue, 5% merkaptoethanol, 50 mmol/l NaF and 1 mmol/l Na3VO4) to final concentration […]. WB method and analysis of the results were performed according Nagelová et al. (Nagelova et al., 2014).

[2] = system: Tau protein; assay: Immunohistochemical fluorescent double staining of Tau phosphorylation in CA1 region of hippocampi of MSG mice; conditions: 6-month-old MSG mice, 14 days SC twice a day; liraglutide 0.2 mg/kg, PrRP31 analog 5 mg/kg; epitopes Thr212 and Ser202/Thr205
Protocol: as §1, §2
To verify the results obtained from WB analysis the immunohistochemical staining was performed. Ten micrometer (10 μm) thick sections were prepared at INSERM, Lille, France. […]

[3] = system: Tau protein; assay: Western blot of Tau phosphorylation in hippocampi of 6-month-old MSG mice after 14-day treatment; conditions: 14 days SC twice a day, liraglutide 0.2 mg/kg, vs saline
Protocol: as §1, §2, §3

Compound: CCCCCCCCCCCCCCCC(=O)N[C@@H](CCC(=O)NCCCC[C@H](NC(=O)[C@H](C)NC(=O)[C@H](C)NC(=O)[C@H](CCC(N)=O)NC(=O)CNC(=O)[C@H](CCC(=O)O)NC(=O)[C@H](CC(C)C)NC(=O)[C@H](Cc1ccc(O)cc1)NC(=O)[C@H](CO)NC(=O)[C@H](CO)NC(=O)[C@@H](NC(=O)[C@H](CC(=O)O)NC(=O)[C@H](CO)NC(=O)[C@@H](NC(=O)[C@H](Cc1ccccc1)NC(=O)[C@@H](NC(=O)CNC(=O)[C@H](CCC(=O)O)NC(=O)[C@H](C)NC(=O)[C@@H](N)Cc1cnc[nH]1)[C@@H](C)O)[C@@H](C)O)C(C)C)C(=O)N[C@@H](CCC(=O)O)C(=O)N[C@@H](Cc1ccccc1)C(=O)N[C@H](C(=O)N[C@@H](C)C(=O)N[C@@H](Cc1c[nH]c2ccccc12)C(=O)N[C@@H](CC(C)C)C(=O)N[C@H](C(=O)N[C@@H](CCCNC(=N)N)C(=O)NCC(=O)N[C@@H](CCCNC(=N)N)C(=O)NCC(=O)O)C(C)C)[C@@H](C)CC)C(=O)O [liraglutide]
- phosphorylation of Akt (Thr308) ([1]; PrRP31 analog 5 mg/kg): significantly increased phosphorylation
- activation of kinases implicated in insulin signaling cascade ([1]; PrRP31 analogs 5 mg/kg): Enhanced activation
- phosphorylation of GSK-3β (Ser9) ([1]; PrRP31 analogs 5 mg/kg): significantly increased phosphorylation
- phosphorylation of PDK-1 [1]: significantly increased phosphorylation
- Tau phosphorylation in hippocampal region CA1 (fluorescent signal) [2]: decreased
- not-phosphorylated Tau (antibody Tau1) ([3]; PrRP31 analog 5 mg/kg): did not show any significant differences among groups
- phosphorylation of Tau protein at epitope Ser396 ([3]; PrRP31 analogs 5 mg/kg): decreased phosphorylation
- phosphorylation of Tau protein at epitope Thr212 ([3]; PrRP31 analogs 5 mg/kg): decreased phosphorylation
- phosphorylation of Tau protein at epitope Thr231 ([3]; PrRP31 analogs 5 mg/kg): decreased phosphorylation
